PubChem BioAssay AID1224830 | NIAID | 2016
Test: 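Regulators of TLR4 signalling towards TNF-alpha in macrophage-like cells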 (primary screen). System: human THP-1 monocytic leukaemia cells, TNF dual-luciferase reporter clone, PMA-differentiated to macrophage-like cells. Reagent: siRNA pool against human genes, 50 nM. Duration: LPS for 4 h, given about 3 days after siRNA transfection. Conditions: bacterial LPS (TLR4 ligand), 10 ng/ml. Measured: 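TNF firefly reporter luminescence divided by renilla, normalised to the plate median, then turned into a robust z-score for each replicate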. Reading the numbers: TNF reporter robust z-score: higher = stronger TNF reporter response to LPS. Active means: 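Each well counts as active if its z-score is over 2.8 or under -1.5; controls are left without a call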.
The whole screen tested about 18,000 reagents; this is an unselected part. About 2,900 of them (16%) count as active. 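Calls are made per well; low scores hint the gene aids the LPS response, high scores that it dampens it.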 Repeated entries: four replicate wells of each siRNA pool.

Which result is listed for MOCOS?
TNF reporter robust z-score: -1.08; Call: inactive

What did the screen give for MOCOS?
TNF reporter robust z-score: -0.61; Call: inactive

What is on record for MOCOS?
TNF reporter robust z-score: -0.91; Call: inactive

With MOCOS, how do the results read?
TNF reporter robust z-score: 0.41; Call: inactive

What did the screen give for IL36R?
TNF reporter robust z-score: -0.39; Call: inactive

With IL36R, how do the results read?
TNF reporter robust z-score: 0.95; Call: inactive

What is on record for IL36R?
TNF reporter robust z-score: -0.16; Call: inactive

For IL36R, how do the results read?
TNF reporter robust z-score: 0.4; Call: inactive

With PNCK, what does the deposit list?
TNF reporter robust z-score: 0.18; Call: inactive

With PNCK, what does the deposit list?
TNF reporter robust z-score: -1.58; Call: active

What did the screen give for PNCK?
TNF reporter robust z-score: -0.83; Call: inactive

Which result is listed for PNCK?
TNF reporter robust z-score: -0.86; Call: inactive

For LTB4R2, how do the results read?
TNF reporter robust z-score: -0.74; Call: inactive

What is on record for LTB4R2?
TNF reporter robust z-score: -0.81; Call: inactive

How did the screen score LTB4R2?
TNF reporter robust z-score: -0.64; Call: inactive

What is on record for LTB4R2?
TNF reporter robust z-score: 0.42; Call: inactive

Which result is listed for XXYLT1?
TNF reporter robust z-score: -1; Call: inactive

What is on record for XXYLT1?
TNF reporter robust z-score: -0.5; Call: inactive

How did the screen score XXYLT1?
TNF reporter robust z-score: 0.05; Call: inactive

For XXYLT1, what was measured?
TNF reporter robust z-score: 1.67; Call: inactive

What is on record for WDR33?
TNF reporter robust z-score: -0.51; Call: inactive

What is on record for WDR33?
TNF reporter robust z-score: -0.61; Call: inactive

For WDR33, what was measured?
TNF reporter robust z-score: -1.59; Call: active

How did the screen score WDR33?
TNF reporter robust z-score: -0.07; Call: inactive

Quoted from the entries so far for reference:
PNCK | TNF reporter robust z-score: -1.58; Call: active
PNCK | TNF reporter robust z-score: -0.83; Call: inactive
PNCK | TNF reporter robust z-score: -0.86; Call: inactive
LTB4R2 | TNF reporter robust z-score: -0.74; Call: inactive
LTB4R2 | TNF reporter robust z-score: -0.81; Call: inactive

More results follow.
For GUCD1, how do the results read?
TNF reporter robust z-score: -0.11; Call: inactive

For GUCD1, what does the deposit list?
TNF reporter robust z-score: -1.27; Call: inactive

How did the screen score GUCD1?
TNF reporter robust z-score: -1.44; Call: inactive

How did the screen score GUCD1?
TNF reporter robust z-score: -1.32; Call: inactive

Which result is listed for CHST5?
TNF reporter robust z-score: -0.7; Call: inactive

What is on record for CHST5?
TNF reporter robust z-score: -0.62; Call: inactive

What did the screen give for CHST5?
TNF reporter robust z-score: 1.16; Call: inactive

Which result is listed for CHST5?
TNF reporter robust z-score: 1.86; Call: inactive

Which result is listed for SNW1?
TNF reporter robust z-score: -1.47; Call: inactive

What is on record for SNW1?
TNF reporter robust z-score: -2.01; Call: active

For SNW1, how do the results read?
TNF reporter robust z-score: -1.85; Call: active

With SNW1, what does the deposit list?
TNF reporter robust z-score: -1.22; Call: inactive

With PLEKHG4B, what was measured?
TNF reporter robust z-score: -0.17; Call: inactive

For PLEKHG4B, how do the results read?
TNF reporter robust z-score: -1.29; Call: inactive

What did the screen give for PLEKHG4B?
TNF reporter robust z-score: 0.54; Call: inactive

For PLEKHG4B, what was measured?
TNF reporter robust z-score: 0.24; Call: inactive

How did the screen score STIM2?
TNF reporter robust z-score: -0.75; Call: inactive

What did the screen give for STIM2?
TNF reporter robust z-score: -0.23; Call: inactive

Which result is listed for STIM2?
TNF reporter robust z-score: -1.05; Call: inactive

For STIM2, what does the deposit list?
TNF reporter robust z-score: -0.64; Call: inactive

What is on record for ABHD17B?
TNF reporter robust z-score: 0.61; Call: inactive

How did the screen score ABHD17B?
TNF reporter robust z-score: 0.37; Call: inactive

What did the screen give for ABHD17B?
TNF reporter robust z-score: 0.11; Call: inactive

What is on record for ABHD17B?
TNF reporter robust z-score: -0.47; Call: inactive

How did the screen score PER1?
TNF reporter robust z-score: 1.73; Call: inactive

For PER1, what was measured?
TNF reporter robust z-score: 0.55; Call: inactive

What did the screen give for PER1?
TNF reporter robust z-score: 0.36; Call: inactive

With PER1, how do the results read?
TNF reporter robust z-score: 1.26; Call: inactive

What did the screen give for KDM3B?
TNF reporter robust z-score: -0.38; Call: inactive

Which result is listed for KDM3B?
TNF reporter robust z-score: -0.21; Call: inactive

What is on record for KDM3B?
TNF reporter robust z-score: -0.86; Call: inactive

With KDM3B, what was measured?
TNF reporter robust z-score: 0.12; Call: inactive

For EML4, what does the deposit list?
TNF reporter robust z-score: -0.73; Call: inactive

What did the screen give for EML4?
TNF reporter robust z-score: -0.34; Call: inactive

With EML4, what was measured?
TNF reporter robust z-score: 0.11; Call: inactive

What is on record for EML4?
TNF reporter robust z-score: 0.04; Call: inactive
